According to publication PMC4794898:
These are yes or no findings as the source states them, for the method shown. In cells and extracts the contact can be indirect. A yes stands for co-enrichment or nearness to the bait. Other partners may have been found. For part of these data: A no says only that the protein was not detected with the bait.

Chains of the proteins cited; added tags and fusions are not shown. Residues count along the entry.
UniProt Q8ILV1: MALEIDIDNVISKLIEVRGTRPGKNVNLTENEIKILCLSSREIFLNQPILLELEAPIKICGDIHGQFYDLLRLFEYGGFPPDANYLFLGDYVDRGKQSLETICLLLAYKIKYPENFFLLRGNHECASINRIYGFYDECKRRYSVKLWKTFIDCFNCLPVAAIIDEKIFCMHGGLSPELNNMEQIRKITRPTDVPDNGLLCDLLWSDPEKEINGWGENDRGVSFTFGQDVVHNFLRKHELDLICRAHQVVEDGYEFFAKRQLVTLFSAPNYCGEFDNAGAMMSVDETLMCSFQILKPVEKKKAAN
UniProt P02769, residues 25-607: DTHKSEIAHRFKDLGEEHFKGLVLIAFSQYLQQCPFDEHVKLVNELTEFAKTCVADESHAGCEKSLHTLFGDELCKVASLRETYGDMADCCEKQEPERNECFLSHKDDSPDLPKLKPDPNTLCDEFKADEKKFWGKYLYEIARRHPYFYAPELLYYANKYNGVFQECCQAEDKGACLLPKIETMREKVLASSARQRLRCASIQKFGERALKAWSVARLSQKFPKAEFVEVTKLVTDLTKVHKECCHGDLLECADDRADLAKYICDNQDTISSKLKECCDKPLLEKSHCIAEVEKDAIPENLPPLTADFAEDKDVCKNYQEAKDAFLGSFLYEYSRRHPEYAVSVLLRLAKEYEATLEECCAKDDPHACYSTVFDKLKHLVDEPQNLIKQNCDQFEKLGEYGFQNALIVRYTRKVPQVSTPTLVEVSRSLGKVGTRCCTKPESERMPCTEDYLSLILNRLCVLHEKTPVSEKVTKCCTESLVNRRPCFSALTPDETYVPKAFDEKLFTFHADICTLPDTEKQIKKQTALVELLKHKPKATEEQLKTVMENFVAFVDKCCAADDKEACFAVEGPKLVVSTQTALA
UniProt Q8IC05: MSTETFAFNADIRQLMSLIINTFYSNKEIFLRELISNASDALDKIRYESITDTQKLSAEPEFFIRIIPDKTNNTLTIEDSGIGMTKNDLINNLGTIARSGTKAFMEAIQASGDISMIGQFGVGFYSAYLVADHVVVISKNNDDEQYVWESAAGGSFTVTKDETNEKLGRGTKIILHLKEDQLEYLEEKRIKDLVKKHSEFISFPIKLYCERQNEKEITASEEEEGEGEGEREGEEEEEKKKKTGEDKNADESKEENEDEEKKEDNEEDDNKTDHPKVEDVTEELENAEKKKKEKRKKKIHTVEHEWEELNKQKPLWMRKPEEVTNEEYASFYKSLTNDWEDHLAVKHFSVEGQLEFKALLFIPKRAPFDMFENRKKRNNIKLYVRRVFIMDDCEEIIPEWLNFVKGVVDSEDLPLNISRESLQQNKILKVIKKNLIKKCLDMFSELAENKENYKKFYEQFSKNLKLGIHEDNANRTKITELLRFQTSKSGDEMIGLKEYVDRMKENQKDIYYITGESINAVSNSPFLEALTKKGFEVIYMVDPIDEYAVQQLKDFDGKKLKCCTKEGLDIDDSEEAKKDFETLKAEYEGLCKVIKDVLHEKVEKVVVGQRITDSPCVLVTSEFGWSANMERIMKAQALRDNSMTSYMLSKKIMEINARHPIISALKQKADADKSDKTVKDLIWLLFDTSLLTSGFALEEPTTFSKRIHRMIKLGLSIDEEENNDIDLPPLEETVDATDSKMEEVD
UniProt Q8IKK7: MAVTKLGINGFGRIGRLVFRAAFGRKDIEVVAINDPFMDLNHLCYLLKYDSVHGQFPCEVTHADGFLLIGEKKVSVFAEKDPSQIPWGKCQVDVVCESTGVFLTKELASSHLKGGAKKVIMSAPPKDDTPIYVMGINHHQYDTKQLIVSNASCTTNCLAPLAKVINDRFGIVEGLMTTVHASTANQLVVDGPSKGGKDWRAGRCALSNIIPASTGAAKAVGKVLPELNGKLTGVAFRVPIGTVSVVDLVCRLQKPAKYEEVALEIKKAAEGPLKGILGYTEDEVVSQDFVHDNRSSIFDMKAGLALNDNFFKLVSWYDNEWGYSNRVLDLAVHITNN

How the values were obtained:
[1] = target: P. falciparum protein phosphatase type-1 (PfPP1) recombinant protein, coupled to Sepharose (Plasmodium falciparum) (UniProt Q8ILV1); test: affinity purification with mass spectrometry; PfPP1 (or BSA as control) covalently coupled to Sepharose beads; precleared total soluble extract of blood stage parasites, overnight at 4 °C; 5 washes with 50 mM Tris, 0.3 M NaCl; elution with 3 M NaSCN; SDS-PAGE, stained bands cut for MS/MS; only the target purified
[2] = target: BSA (bovine (from the name BSA)) (UniProt P02769); test: as above

Substance	binding [1]	binding [2]
protein disulfide isomerase (PDI8) (from UniProt C0H4Y6)	binds	no binding
heat shock protein 90 (HSP90) (from UniProt Q8IC05 1-745)	binds	no binding
glyceraldehyde-3-phosphate dehydrogenase (GAPDH) (from UniProt Q8IKK7 1-337)	binds	no binding
